Data from article PMC10214526, “Semisynthetic LC3 Probes for Autophagy Pathways Reveal a Noncanonical LC3 Interacting Region Motif Crucial for the Enzymatic Activity of Human ATG3” (ACS Central Science, 2023).
Results are given in words; binding and its absence hold for the method and conditions named. Binding seen in cells or lysates may run through a third protein. Some binding calls cover weakened binding; strength is not graded here.

Protein sequences, listed by entry. Tags and fused reporters are not part of them. Lines headed by an entry give the natural chain unless they say otherwise; changes in a name come on top.
UniProt Q676U5: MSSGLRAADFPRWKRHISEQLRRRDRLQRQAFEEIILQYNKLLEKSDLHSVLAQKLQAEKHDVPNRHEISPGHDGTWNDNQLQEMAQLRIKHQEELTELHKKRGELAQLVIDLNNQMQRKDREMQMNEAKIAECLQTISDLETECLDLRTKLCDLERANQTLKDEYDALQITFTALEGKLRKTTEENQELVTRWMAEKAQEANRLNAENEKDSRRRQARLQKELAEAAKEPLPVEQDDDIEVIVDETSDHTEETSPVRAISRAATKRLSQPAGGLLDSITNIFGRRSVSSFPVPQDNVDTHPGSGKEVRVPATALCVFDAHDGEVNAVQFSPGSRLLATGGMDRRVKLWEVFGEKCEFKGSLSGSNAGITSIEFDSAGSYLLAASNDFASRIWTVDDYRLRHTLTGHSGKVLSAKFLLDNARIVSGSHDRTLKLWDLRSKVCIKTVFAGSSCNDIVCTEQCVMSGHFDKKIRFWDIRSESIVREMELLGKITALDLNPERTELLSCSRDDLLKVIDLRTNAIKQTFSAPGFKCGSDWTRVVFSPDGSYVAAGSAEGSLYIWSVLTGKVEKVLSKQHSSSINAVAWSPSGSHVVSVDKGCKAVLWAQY
UniProt Q9H1Y0: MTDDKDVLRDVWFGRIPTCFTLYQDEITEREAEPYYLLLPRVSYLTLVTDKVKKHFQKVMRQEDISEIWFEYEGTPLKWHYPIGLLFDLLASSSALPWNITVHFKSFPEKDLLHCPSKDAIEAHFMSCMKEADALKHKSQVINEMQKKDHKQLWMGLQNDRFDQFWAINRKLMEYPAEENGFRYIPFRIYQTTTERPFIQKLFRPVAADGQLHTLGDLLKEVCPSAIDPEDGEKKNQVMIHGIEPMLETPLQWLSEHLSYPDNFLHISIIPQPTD

Assays:
Assay in all cases: co-IP; anti-FLAG co-IP of FLAG-ATG3 variants transiently expressed in HCT116 ATG3 knock-down cells (CRISPRi); immunoblotting for ATG5–ATG12 and ATG16L1
FLAG-ATG3 wt (human) = FLAG-ATG3 wt (human) (UniProt Q9NT62)
FLAG-ATG3 C264A (human) = FLAG-ATG3 C264A (human) (UniProt Q9NT62)
FLAG-ATG3 W107A (human) = FLAG-ATG3 W107A (human) (UniProt Q9NT62)
FLAG-ATG3 ΔLIR (human) = FLAG-ATG3 ΔLIR (human) (UniProt Q9NT62)

Measured: binding

ATG16L1 (from UniProt Q676U5 1-607)
binds: all assays above

ATG5-ATG12 complex (from UniProt Q9H1Y0 1-275; O94817 1-140)
binds: all assays above
